From PubChem BioAssay AID248 (DTP/NCI, 2004)
The list does not hold the whole screen: it is rich in T/C values a quarter to a half above the control, in often repeated tests (any T/C) and in doses without a T/C. Further doses and runs are listed elsewhere. T/C is the treated group as % of the vehicle group. Some doses have a count of surviving animals in place of a T/C: the source holds a T/C of zero for them, seemingly a mark for toxic or unscored doses. Some doses without a T/C left all or most animals alive at the check, yet need not have been tolerated: the source hardly ever lists a survival T/C far under the control, and the zero likely stands for such cases as well. Counts of survivors are from the toxicity check (mostly the fifth day) where no day follows; animals may have died later. Schedules are NCI's codes, read here as Q, the interval in days (D) or hours (H), X, the number of doses. Some schedules carry Z or #; the key to these is not given. For survival time, this PubChem deposit counts one and a half times the control or more as active, and values a quarter to a half above the control carry no call in these data; other NCI protocols may use other cut-offs. Some T/C values are followed by the survivors on the day toxicity was checked, most often the fifth; without a count, all were alive then.

Tested on: L1210 leukemia ip in BDF1 mice, survival T/C
Experiment: NCI In Vivo Anticancer Drug Screen. Data for tumor model L1210 Leukemia (intraperitoneal) in B6D2F1 (BDF1) mice
Details: T/C endpoint: mean survival time, higher T/C = longer survival
[1] = dose: 300.0 mg/kg/injection, schedule: Q01DX001 (ip), vehicle: saline
[2] = dose: 200.0 mg/kg/injection, schedule: Q04DX003 (ip), vehicle: saline with Tween-80
[3] = dose: 400.0 mg/kg/injection, schedule: Q04DX003 (ip), vehicle: saline with Tween-80
[4] = dose: 150.0 mg/kg/injection, schedule: Q01DX001 (ip), vehicle: carboxymethylcellulose (CMC)
[5] = dose: 300.0 mg/kg/injection, schedule: Q01DX001 (ip), vehicle: carboxymethylcellulose (CMC)
[6] = dose: 400.0 mg/kg/injection, schedule: Q01DX009 (ip), vehicle: saline with Tween-80

For `Nc1ccc(C(=O)OCCCCC2CCCC2N)cc1` (stereo unspecified), the survivor count [1] was 0 of 6.

In the case of `C=C(C)C(=O)OC1CC23OC2CC(COC3O)C2OC2C2OC(=O)C(=C)C12` (stereo unspecified), the survivor count (dose: 25.0 mg/kg/injection, schedule: Q01DX009 (ip), vehicle: acetone) is reported as 1 of 6, the survivor count (dose: 50.0 mg/kg/injection, schedule: Q04DX003 (ip), vehicle: acetone) is reported as 4 of 6 and the survivor count (dose: 100.0 mg/kg/injection, schedule: Q01DX001 (ip), vehicle: acetone) is reported as 0 of 6. The survivor count (dose: 200.0 mg/kg/injection, schedule: Q01DX001 (ip), vehicle: acetone) was 0 of 6 and the survivor count (dose: 400.0 mg/kg/injection, schedule: Q01DX001 (ip), vehicle: acetone) was 0 of 6.

With `CC(=O)O/C=C1\CC2C3CC=C4CC(OC(C)=O)CCC4(C)C3CCC2(C)C1=O` (stereo unspecified) the survivor count (dose: 100.0 mg/kg/injection, schedule: Q01DX001 (ip), vehicle: saline with Tween-80) was 3 of 3.

With `OC1C2CCN(CC2)C1C(c1ccccc1)c1ccccc1` (stereo unspecified) the survivor count [2] was 2 of 6 and the survivor count [3] was 0 of 6.

With `Cc1nc(N)nc(N)c1CCCCc1ccc(N)cc1` the survivor count (dose: 400.0 mg/kg/injection, schedule: Q01DX001 (ip), vehicle: Klucel (hydroxypropylcellulose) (HPC)) was 0 of 3.

`O=C(Nc1cccc(Cl)c1)OCC#CCCl` was tested, and the survivor count (dose: 100.0 mg/kg/injection, schedule: Q01DX001 (ip), vehicle: saline sonified) was 6 of 6 and the survivor count (dose: 200.0 mg/kg/injection, schedule: Q01DX001 (ip), vehicle: saline sonified) was 6 of 6.

With `COc1cc(C=Nc2ccc3ccccc3c2)ccc1N(CCCl)CCCl` the T/C (dose: 2.0 mg/kg/injection, schedule: Q01DX009 (ip), vehicle: carboxymethylcellulose (CMC)) was 130 % of control, the T/C (dose: 5.0 mg/kg/injection, schedule: Q01DX009 (ip), vehicle: other) was 132 % of control and the T/C (dose: 7.4 mg/kg/injection, schedule: Q01DX009 (ip), vehicle: other) was 135 % of control. For the same molecule, the T/C (dose: 8.8 mg/kg/injection, schedule: Q01DX009 (ip), vehicle: carboxymethylcellulose (CMC)) was 139 % of control, the T/C (dose: 11.0 mg/kg/injection, schedule: Q01DX009 (ip), vehicle: other) was 143 % of control and the T/C (dose: 13.3 mg/kg/injection, schedule: Q01DX009 (ip), vehicle: carboxymethylcellulose (CMC)) was 145 % of control. For the same molecule, the T/C (dose: 15.0 mg/kg/injection, schedule: Q01DX001 (ip), vehicle: carboxymethylcellulose (CMC)) was 135 % of control, the T/C (dose: 17.0 mg/kg/injection, schedule: Q01DX001 (ip), vehicle: carboxymethylcellulose (CMC)) was 136 % of control and the T/C (dose: 17.0 mg/kg/injection, schedule: Q01DX009 (ip), vehicle: other) was 149 % of control. For the same molecule, the T/C (dose: 26.0 mg/kg/injection, schedule: Q01DX001 (ip), vehicle: carboxymethylcellulose (CMC)) was 134 % of control, the T/C (dose: 30.0 mg/kg/injection, schedule: Q01DX001 (ip), vehicle: carboxymethylcellulose (CMC)) was 129 % of control [5 of 6 alive] and the T/C (dose: 60.0 mg/kg/injection, schedule: Q01DX001 (ip), vehicle: carboxymethylcellulose (CMC), evaluated on day 30) was 147 % of control. The T/C (dose: 60.0 mg/kg/injection, schedule: Q01DX001 (ip), vehicle: carboxymethylcellulose (CMC), run until all animals had died) was 143 % of control, the survivor count [4] was 1 of 6 and the survivor count [5] was 0 of 6.

For `O=C(OC(CC[P+](c1ccccc1)(c1ccccc1)c1ccccc1)(C(=O)c1ccccc1)c1ccccc1)c1ccccc1` (stereo unspecified), the survivor count (dose: 3.0 mg/kg/injection, schedule: Q01DX009 (ip), vehicle: saline with Tween-80) was 2 of 6, the survivor count (dose: 6.0 mg/kg/injection, schedule: Q01DX009 (ip), vehicle: saline with Tween-80) was 3 of 6 and the survivor count (dose: 12.0 mg/kg/injection, schedule: Q01DX009 (ip), vehicle: saline with Tween-80) was 0 of 6. For the same molecule, the survivor count [4] was 0 of 6 and the survivor count [5] was 0 of 6.

With `CC(N)CNc1ccccc1` (stereo unspecified) the survivor count (dose: 100.0 mg/kg/injection, schedule: Q04DX003 (ip), vehicle: water) was 0 of 6, the survivor count (dose: 200.0 mg/kg/injection, schedule: Q04DX003 (ip), vehicle: water) was 0 of 6 and the survivor count (dose: 400.0 mg/kg/injection, schedule: Q04DX003 (ip), vehicle: water) was 0 of 6.

For `FC(F)(F)c1cccc(NC(=S)SCc2ccc(Cl)cc2)c1`, the survivor count (dose: 400.0 mg/kg/injection, schedule: Q04DX002 (ip), vehicle: Klucel (hydroxypropylcellulose) (HPC)) was 2 of 3.

In the case of `O=C(O)c1cc2ccccc2cc1O`, the survivor count (dose: 400.0 mg/kg/injection, schedule: Q04DX002 (ip), vehicle: gum acacia) is reported as 0 of 3.

With `Cc1cc(=O)[nH]c(O)c1C(=O)/C=C/c1ccccc1` the survivor count (dose: 400.0 mg/kg/injection, schedule: Q01DX001 (ip), vehicle: saline) was 1 of 6.

For `NCCSC1(O)C(=O)c2ccccc2C1=O`, the survivor count [1] was 2 of 6.

For `CN(C)CCCN=Cc1ccc(O)cc1O.CN(C)CCCN=Cc1ccc(O)cc1O.[Ni+2]`, the survivor count (dose: 100.0 mg/kg/injection, schedule: Q04DX003 (ip), vehicle: saline with Tween-80) was 2 of 6, the survivor count [2] was 1 of 6 and the survivor count [3] was 0 of 6.

`C#CCN(CC#C)C(=O)Nc1ccc(Cl)cc1` was tested, and the survivor count (dose: 200.0 mg/kg/injection, schedule: Q04DX002 (ip), vehicle: saline with Tween-80) was 2 of 3 and the survivor count (dose: 400.0 mg/kg/injection, schedule: Q04DX002 (ip), vehicle: saline with Tween-80) was 0 of 3.

For `CCC(=O)c1ccc(OC(=O)Nc2ccc(Cl)cc2[N+](=O)[O-])cc1`, the survivor count [6] was 5 of 6.

`CCCC(C)(C)SSC(C)(C)CCC` was tested, and the survivor count [6] was 6 of 6.

In the case of `CN(C)CCCNC(=S)S`, the survivor count (dose: 50.0 mg/kg/injection, schedule: Q04DX003 (ip), vehicle: saline) is reported as 3 of 6, the survivor count (dose: 100.0 mg/kg/injection, schedule: Q04DX003 (ip), vehicle: saline) is reported as 0 of 6 and the survivor count (dose: 200.0 mg/kg/injection, schedule: Q04DX003 (ip), vehicle: saline) is reported as 0 of 6. For the same molecule, the survivor count (dose: 400.0 mg/kg/injection, schedule: Q04DX003 (ip), vehicle: saline) was 0 of 6.

With `COc1ccccc1/C=N/N=C(N)N` the survivor count (dose: 62.0 mg/kg/injection, schedule: Q01DX Z (ip), vehicle: other) was 3 of 6, the survivor count (dose: 62.5 mg/kg/injection, schedule: Q01DX Z (ip), vehicle: saline) was 2 of 6 and the survivor count (dose: 125.0 mg/kg/injection, schedule: Q01DX Z (ip), vehicle: other) was 0 of 6. The survivor count (dose: 125.0 mg/kg/injection, schedule: Q01DX Z (ip), vehicle: saline) was 4 of 6, the survivor count (dose: 250.0 mg/kg/injection, schedule: Q01DX Z (ip), vehicle: saline) was 0 of 6 and the survivor count (dose: 500.0 mg/kg/injection, schedule: Q01DX Z (ip), vehicle: saline) was 0 of 6.

For `CCN(CC)CCN1C(=O)c2ccc3c4c(ccc(c24)C1=O)C(=O)N(CCN(CC)CC)C3=O`, the survivor count (dose: 25.0 mg/kg/injection, schedule: Q01DX001 (ip), vehicle: saline) was 4 of 6, the survivor count (dose: 50.0 mg/kg/injection, schedule: Q01DX001 (ip), vehicle: saline) was 6 of 6 and the survivor count (dose: 100.0 mg/kg/injection, schedule: Q01DX001 (ip), vehicle: saline) was 2 of 6. For the same molecule, the survivor count (dose: 200.0 mg/kg/injection, schedule: Q01DX001 (ip), vehicle: saline) was 2 of 6.

For `OCCN1CCC2(CC1)SSC1(CCN(CCO)CC1)S2`, the survivor count [3] was 2 of 6.
